Measured values reported in PMC7276988, “Cryo-EM Structure of the Fork Protection Complex Bound to CMG at a Replication Fork” (Molecular Cell, 2020).
These are yes or no findings as the source states them, for the method shown. Some binding calls cover weakened binding; strength is not graded here.

Chains of the proteins cited; added tags and fusions are not shown. Lines headed by an entry give the natural chain unless they say otherwise; changes in a name come on top.
UniProt P29469: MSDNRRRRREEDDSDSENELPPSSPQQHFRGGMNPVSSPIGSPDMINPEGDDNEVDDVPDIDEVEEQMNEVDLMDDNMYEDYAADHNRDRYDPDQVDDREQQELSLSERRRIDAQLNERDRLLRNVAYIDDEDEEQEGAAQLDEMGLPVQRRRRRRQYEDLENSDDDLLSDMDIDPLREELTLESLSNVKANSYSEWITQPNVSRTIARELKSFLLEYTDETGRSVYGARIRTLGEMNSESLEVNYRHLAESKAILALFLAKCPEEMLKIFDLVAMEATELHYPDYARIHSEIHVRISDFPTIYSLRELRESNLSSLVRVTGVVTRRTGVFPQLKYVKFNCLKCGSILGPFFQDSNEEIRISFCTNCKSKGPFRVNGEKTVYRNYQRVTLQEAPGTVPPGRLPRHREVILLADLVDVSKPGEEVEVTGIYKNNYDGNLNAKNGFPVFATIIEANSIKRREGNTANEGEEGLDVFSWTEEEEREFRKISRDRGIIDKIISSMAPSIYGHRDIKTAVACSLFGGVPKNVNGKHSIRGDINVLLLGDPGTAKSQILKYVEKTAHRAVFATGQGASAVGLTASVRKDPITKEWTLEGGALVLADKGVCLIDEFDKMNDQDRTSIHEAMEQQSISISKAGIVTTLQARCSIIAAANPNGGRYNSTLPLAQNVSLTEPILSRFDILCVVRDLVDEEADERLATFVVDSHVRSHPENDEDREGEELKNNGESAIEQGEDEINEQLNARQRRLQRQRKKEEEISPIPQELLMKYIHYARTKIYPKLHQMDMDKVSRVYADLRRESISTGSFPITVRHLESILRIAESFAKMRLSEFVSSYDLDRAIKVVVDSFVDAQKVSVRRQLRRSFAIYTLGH
UniProt Q04659: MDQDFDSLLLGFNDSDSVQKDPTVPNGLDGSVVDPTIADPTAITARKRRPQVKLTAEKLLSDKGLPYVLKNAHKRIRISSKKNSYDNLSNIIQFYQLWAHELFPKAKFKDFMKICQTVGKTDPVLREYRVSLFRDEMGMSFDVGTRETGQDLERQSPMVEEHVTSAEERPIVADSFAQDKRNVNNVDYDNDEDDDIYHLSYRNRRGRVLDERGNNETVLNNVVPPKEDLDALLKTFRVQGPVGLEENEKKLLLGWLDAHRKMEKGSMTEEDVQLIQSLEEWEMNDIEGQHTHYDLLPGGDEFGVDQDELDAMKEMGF

Tests used:
[1] = target: T1, Cdc45-MCM-GINS (CMG) helicase (S. cerevisiae, UniProt P29469 1-868; P24279 1-971; P30665 1-933; P29496 1-775; P53091 1-1017; P38132 …); assay: cryo-EM structure; complex of all 15 proteins co-overexpressed in S. cerevisiae, co-purified (anti-FLAG, calmodulin), glycerol gradient fixation with glutaraldehyde
T1 construct: Mcm2, S. cerevisiae, subunit of MCM in CMG; Mcm3, S. cerevisiae, subunit of MCM in CMG; Mcm4, S. cerevisiae, subunit of MCM in CMG; Mcm5, S. cerevisiae, subunit of MCM in CMG; Mcm6, S. cerevisiae, subunit of MCM in CMG; Mcm7, S. cerevisiae, subunit of MCM in CMG; Cdc45, S. cerevisiae, subunit of CMG; Psf1, S. cerevisiae, subunit of GINS in CMG; Psf2, S. cerevisiae, subunit of GINS in CMG; Psf3, …

[2] = target: T1, Cdc45-MCM-GINS (CMG) helicase; assay: cryo-EM structure; co-expressed, co-purified complex, cross-linker omitted from the glycerol gradient; streptavidin-blocked fork DNA added
[3] = target: T1, Cdc45-MCM-GINS (CMG) helicase; assay: cryo-EM structure; reconstituted from purified CMG, fork DNA, Csm3/Tof1, Ctf4, Mrc1 with AMP-PNP; glycerol gradient fixation (glutaraldehyde and BS3); both purified
[4] = target: T1, Cdc45-MCM-GINS (CMG) helicase; assay: co-sedimentation; 10-30% glycerol gradient without cross-linker; 0.5 μM CMG with 1.5 molar excess of fork DNA, Csm3/Tof1 (or mutant), Ctf4 and Mrc1; 500 μM AMP-PNP, 3 mM Mg(OAc)2, 150 mM NaOAc, pH 7.5; 200,000g, 4°C, 2 h; silver-stained SDS-PAGE of fractions; both purified

Measured: binding

Csm3/Tof1 heterodimer (from UniProt Q04659 1-317; P53840 1-1238) (complex)
binds: all assays above
